{"source": "patent US9914969B2", "about": "“Fads regulation” (CORNELL UNIVERSITY, priority 2012, dated 2018)", "key": {"FADS1 expression": {"system": "FADS1 expression", "test": "FADS1 expression in lymphoblasts after drug treatment (qRT-PCR)", "format": "cell-based, human", "details": "24 hours", "description": "Immortalized B-lymphocyte (lymphoblast) cell lines from Japanese HapMap participants were obtained from the Coriell Institute for Medical Research, and used within 10 passages of receipt from the repository. Cells were grown in RPMI 1640 with 2 mM L-alanyl-glutamine (Sigma) and 15% fetal bovine serum (media and serum obtained from HyClone) in a humidified environment at 37° C. with 5% CO2. All experiments were conducted on cells grown and treated in parallel in identical media and growth conditions. […] RNA was extracted using the RNeasy kit (Qiagen), and RNA quality was checked by agarose gel electrophoresis to verify RNA integrity and by 260/280 nm ratios on a NanoDrop 2000 (Thermo Scientific). cDNA was prepared using the High Capacity cDNA Reverse Transcription Kit (Applied Biosystems) according to the manufacturer's protocol.\n(§1) Quantitative real-time PCR was carried out using SYBR Green Master Mix (Roche) on a LightCycler 480 instrument (Roche). PCR primers were obtained from Integrated DNA Technologies (sequences available upon request), except for 18S, which was obtained from Qiagen as a QuantiTect Primer Assay. PCR reaction efficiency was calculated from standard curves, and reactions were assessed by both melting curves and by running on agarose gels to verify reaction products and the absence of primer-dimers. Quantitative cycle (Cq) values were determined using LightCycler 480 SW1.5.0SP3 software, version 1.5.0.39 (Roche). […] Statistical significance of differences in fold changes between genotypes in response to cell treatments (normalized to vehicle treatment for each genotype) was assessed by the Mann-Whitney U test. Bootstrapping and randomization techniques were used in REST 2009 software (Qiagen) to calculate significance of fold changes normalizing both genotypes to basal expression in I/I allele homozygotes.\nFollow-up experiments were carried out in Japanese HapMap lymphoblast cell lines homozygous for the D/D haplotype associated with FADS1 expression, or homozygous for the I/I haplotype. […]"}, "FADS2 expression": {"system": "FADS2 expression", "test": "FADS2 expression in lymphoblasts after drug treatment (qRT-PCR)", "format": "cell-based, human", "description": "Immortalized B-lymphocyte (lymphoblast) cell lines from Japanese HapMap participants were obtained from the Coriell Institute for Medical Research, and used within 10 passages of receipt from the repository. Cells were grown in RPMI 1640 with 2 mM L-alanyl-glutamine (Sigma) and 15% fetal bovine serum (media and serum obtained from HyClone) in a humidified environment at 37° C. with 5% CO2. All experiments were conducted on cells grown and treated in parallel in identical media and growth conditions. […]\nas §1, with “Bootstrapping and randomization techniques were used in REST 2009 software (Qiagen) to calculate significance of fold changes normalizing both genotypes to basal expression in I/I allele homozygotes.” left out"}}, "note": "Entries after “also recorded” stand apart in the source; their conditions may differ. At least one structure is not confirmed: it was looked up by name or label, or the drawing left a doubt. Some of these results come from one statement about several compounds together."}
{"smiles": "O=C(O)Cc1cccc(OCCCN(Cc2cccc(C(F)(F)F)c2Cl)CC(c2ccccc2)c2ccccc2)c1", "note": "[GW3965]", "values": [{"measurement": "upregulation (induction) of FADS1 higher for the D/D haplotype than for I/I", "setting": "FADS1 expression; D/D vs I/I haplotype homozygote lymphoblasts, 5 μNI simvastatin, 1 μNI GW3965", "result": "20-40%"}, {"measurement": "induction of FADS2 higher in D/D haplotype homozygotes", "setting": "FADS2 expression; D/D vs I/I lymphoblasts, simvastatin or GW3965 treatment", "result": "20-40%"}]}
{"smiles": "CN(CCOc1ccc(CC2SC(=O)NC2=O)cc1)c1ccccn1", "note": "(centres unmarked) [rosiglitazone]", "values": [{"measurement": "final FADS1 expression after treatment, difference between genotypes (in words)", "setting": "FADS1 expression; D/D vs I/I lymphoblasts, normalized to basal I/I expression", "result": "basal difference in FADS1 expression was maintained"}, {"measurement": "FADS1 response to drug, D/D vs I/I haplotype homozygotes (in words)", "setting": "FADS1 expression; lymphoblasts, 5 μNI simvastatin, 1 μNI GW3965, 20 μM rosiglitazone, normalized to vehicle", "result": "identical modest FADS1 upregulation responses; also recorded: no difference"}, {"measurement": "FADS2 response to treatment (in words)", "setting": "FADS2 expression; I/I and D/D lymphoblasts, 20 μM rosiglitazone, 24 hours", "result": "neither genotype showed any response"}]}
